At least one compound was matched to its structure with a doubt left.
Tested on: DOX probe
Experiment: DOX probe specificity characterization against off-target chemotherapy agents
Assay type: binding
Settings: 1,000× greater concentrations (1 mM vs DOX 1 μM), 1×SSC
Excerpt: Probes were characterized in terms of affinity, specificity and kinetic response. […] At each concentration, the signal was permitted to equilibrate and then ten subsequent readings were obtained from two separate electrodes and averaged as the reported values. […] Voltammograms were taken in immediate succession to provide maximal temporal resolution. Dose-response curves were obtained by fitting data to a one-site binding model, and kinetic-response curves were obtained by fitting data to a one-phase association and dissociation model.

CN(C)/N=N/c1[nH]cnc1C(N)=O [dacarbazine]
sensor response to off-target drug: did not respond

Source: US12016682B2, “In-vivo monitoring of molecular targets” (The Regents of the University Of California, priority 2013, dated 2024)
